Measured values: the supplement of paper PMC5407854, “Inhibitor of ppGalNAc-T3-mediated O-glycosylation blocks cancer cell invasiveness and lowers FGF23 levels” (eLife, 2017)
Some of the results follow. Most entries show no effect beyond the scatter of the controls.

The compounds below were run on ppGalNAc-T3 sensor (assay: T3 sensor activation Q score (MG/GFP ratio z-score vs DMSO controls) (SD units); higher = more sensor activation (inhibition of ppGalNAc-T3 glycosylation)). Details: HEK293 sensor cells; 10 µM; 6 h.
Experimental: (§1)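 Cells were treated with compound at 10 uM for 6 h, then MG/GFP ratio was read by flow cytometry (10,000 cells per well, duplicate wells). Q = (R - R_neg)/SD_neg relative to DMSO vehicle controls; the signal rises when the glycosyltransferase is inhibited.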

| SMILES | T3 sensor activation Q score |
| --- | --- |
| CC(C)CC(=O)N1CCN(Cc2ccccc2Cl)CC1 | -0.245 |
| CCN(CC)C(=O)C1CCCN(Cc2ccc(C)cc2)C1 (stereo not given) | -0.205 |
| NC(=O)c1ccccc1NC(=O)c1ccc(-c2ccccc2)cc1 | 0.95 |
| CCN(CC)S(=O)(=O)c1cc(C(=O)O)c(Cl)cc1Cl | -2.08 |
| NC(=O)COc1cccc2cccnc12 | 0.145 |
| OC1CCN(Cc2ccc3c(c2)OCO3)CC1 | 0.4 |
| Cc1ccc(NC(=O)c2cc(N3C(=O)CCC3=O)ccc2N2CCOCC2)cc1Cl | 0.18 |
| COc1ccccc1NC(=O)CC1Sc2ccccc2NC1=O (stereo not given) | -1.25 |
| COc1ccccc1NCc1ccc([N+](=O)[O-])s1 | 0.205 |
| O=C1NC(c2ccc(Br)cc2)C(=C(O)c2ccccc2)C1=O (stereo not given) | 0.46 |
| CN(C)CCNc1ncnc2scc(-c3ccccc3)c12 | -0.09 |
| Cc1cn(S(=O)(=O)c2cc(Cl)ccc2Cl)cn1 | 0.015 |
| Cc1ccc(S(=O)(=O)Nc2c(C)cc(O)c(Cl)c2C)cc1 | -1.32 |
| O=[N+]([O-])c1ccc(NCCNCCO)cc1N1CCOCC1 | 1.41 |
| Cc1ccc(NC(=O)N2CCN(C)CC2)cc1 | 0.265 |
| Cc1cccc(C(=O)c2cn[nH]c2-c2ccc(C)cc2O)c1 | -0.08 |
| Cc1nc(NN)c2c3c(sc2n1)CCC3 | 1 |
| COc1ccc(OC)c(CN2CCC(N3CCCCC3)CC2)c1 | 1.36 |
| CCc1ccccc1NC(=O)c1ccc(-c2ccccc2)cc1 | -0.025 |
| O=C(Nc1ccc(N2CCOCC2)cc1)c1ccccc1 | 0.18 |

| SMILES | T3 sensor activation Q score |
| --- | --- |
| COc1cccc(N2C(=O)CC(N3CCN(C)CC3)C2=O)c1 (stereo not given) | -0.025 |
| O=C(O)C(F)(F)C12OC3C4C5CC(C6C5C3C61)C42 (stereo not given) | 0.365 |
| COc1ccccc1C(=O)Nc1ccc(-c2nc3cc(C)ccc3o2)cc1 | 0.23 |
| COc1ccc(S(=O)(=O)/C=C/c2ccccc2)cc1 | 0.195 |
| CCCN(CCO)Cc1cccc(F)c1 | -0.085 |
| CN1CCCN(Cc2cccc(F)c2)CC1 | 1.45 |
| O=[N+]([O-])c1ccccc1N1CCCNCC1 | 0.355 |
| O=C(C1CCCO1)N1CCN(Cc2ccc3c(c2)OCO3)CC1 (stereo not given) | -0.325 |
| O=C(c1ccc(Br)o1)N1CCCCCC1 | 0.415 |
| Cc1ccc(C)c(CN2CCN(Cc3ccc4c(c3)OCO4)CC2)c1 | 0.9 |
| CC(C)c1ccc(NC(=O)c2ccco2)cc1 | -0.765 |
| CCOc1ccc(N2C(=O)CC(N3CCCC3)C2=O)cc1 (stereo not given) | -0.43 |
| Cc1ccc(S(=O)(=O)NCc2ccccc2)cc1C | -0.455 |
| O=[N+]([O-])c1ccccc1/C=C/CN1CCN(c2ccccc2F)CC1 | 0.525 |
| O=C1N=C(c2ccccc2)C(c2ccccc2)N1 (stereo not given) | 0.02 |
| Cc1ccc2[nH]c3c(c2c1)CN(C)CC3 | -0.845 |
| CCOc1cccc(N2C(=O)CC(N3CCC(C(N)=O)CC3)C2=O)c1 (stereo not given) | 0.485 |
| O=C(O)c1cc(S(=O)(=O)N2CCCCC2)ccc1Cl | 0.61 |
| COc1ccc(CNC2=CC(=O)CC(C)(C)C2)cc1 | -0.275 |
| CC(=O)c1cccc(Nc2nc(-c3ccccc3)cs2)c1 | -0.305 |

Of the compounds above, these contain a furan ring, fused or not.

| SMILES | T3 sensor activation Q score |
| --- | --- |
| O=C(c1ccc(Br)o1)N1CCCCCC1 | 0.415 |
| CC(C)c1ccc(NC(=O)c2ccco2)cc1 | -0.765 |

The compounds below were run on ppGalNAc-T2 sensor (assay: T2 sensor activation Q score (MG/GFP ratio z-score vs DMSO controls) (SD units); higher = more sensor activation (inhibition of ppGalNAc-T2 glycosylation)). Details: HEK293 sensor cells; 10 µM; 6 h.
Experimental: as §1

| SMILES | T2 sensor activation Q score |
| --- | --- |
| CC(C)CC(=O)N1CCN(Cc2ccccc2Cl)CC1 | -0.55 |
| CCN(CC)C(=O)C1CCCN(Cc2ccc(C)cc2)C1 (stereo not given) | -0.09 |
| NC(=O)c1ccccc1NC(=O)c1ccc(-c2ccccc2)cc1 | -0.45 |
| CCN(CC)S(=O)(=O)c1cc(C(=O)O)c(Cl)cc1Cl | -0.005 |
| NC(=O)COc1cccc2cccnc12 | 1.01 |
| OC1CCN(Cc2ccc3c(c2)OCO3)CC1 | -0.045 |
| Cc1ccc(NC(=O)c2cc(N3C(=O)CCC3=O)ccc2N2CCOCC2)cc1Cl | -0.375 |
| COc1ccccc1NC(=O)CC1Sc2ccccc2NC1=O (stereo not given) | -0.24 |
| COc1ccccc1NCc1ccc([N+](=O)[O-])s1 | -0.785 |
| O=C1NC(c2ccc(Br)cc2)C(=C(O)c2ccccc2)C1=O (stereo not given) | -0.18 |
| CN(C)CCNc1ncnc2scc(-c3ccccc3)c12 | -0.24 |
| Cc1cn(S(=O)(=O)c2cc(Cl)ccc2Cl)cn1 | 0.325 |
| Cc1ccc(S(=O)(=O)Nc2c(C)cc(O)c(Cl)c2C)cc1 | 0.045 |
| O=[N+]([O-])c1ccc(NCCNCCO)cc1N1CCOCC1 | 0.64 |
| Cc1ccc(NC(=O)N2CCN(C)CC2)cc1 | -0.19 |
| Cc1cccc(C(=O)c2cn[nH]c2-c2ccc(C)cc2O)c1 | -0.725 |
| Cc1nc(NN)c2c3c(sc2n1)CCC3 | -0.365 |
| COc1ccc(OC)c(CN2CCC(N3CCCCC3)CC2)c1 | -1.67 |
| CCc1ccccc1NC(=O)c1ccc(-c2ccccc2)cc1 | -0.16 |
| O=C(Nc1ccc(N2CCOCC2)cc1)c1ccccc1 | 0.59 |

As entered above.
In T2 sensor activation Q score, `Cc1ccc(S(=O)(=O)Nc2c(C)cc(O)c(Cl)c2C)cc1` shows 0.045
In T2 sensor activation Q score, `Cc1ccc(NC(=O)N2CCN(C)CC2)cc1` shows -0.19

Later entries.

| SMILES | T2 sensor activation Q score |
| --- | --- |
| COc1cccc(N2C(=O)CC(N3CCN(C)CC3)C2=O)c1 (stereo not given) | 0.285 |
| O=C(O)C(F)(F)C12OC3C4C5CC(C6C5C3C61)C42 (stereo not given) | 0.73 |
| COc1ccccc1C(=O)Nc1ccc(-c2nc3cc(C)ccc3o2)cc1 | -0.96 |
| COc1ccc(S(=O)(=O)/C=C/c2ccccc2)cc1 | -1.2 |
| CCCN(CCO)Cc1cccc(F)c1 | 0.915 |
| CN1CCCN(Cc2cccc(F)c2)CC1 | 0.055 |
| O=[N+]([O-])c1ccccc1N1CCCNCC1 | -0.455 |
| O=C(C1CCCO1)N1CCN(Cc2ccc3c(c2)OCO3)CC1 (stereo not given) | -0.115 |
| O=C(c1ccc(Br)o1)N1CCCCCC1 | -0.875 |
| Cc1ccc(C)c(CN2CCN(Cc3ccc4c(c3)OCO4)CC2)c1 | -0.275 |
| CC(C)c1ccc(NC(=O)c2ccco2)cc1 | -1.11 |
| CCOc1ccc(N2C(=O)CC(N3CCCC3)C2=O)cc1 (stereo not given) | 0.505 |
| Cc1ccc(S(=O)(=O)NCc2ccccc2)cc1C | 1.05 |
| O=[N+]([O-])c1ccccc1/C=C/CN1CCN(c2ccccc2F)CC1 | -0.53 |
| O=C1N=C(c2ccccc2)C(c2ccccc2)N1 (stereo not given) | 0.285 |
| Cc1ccc2[nH]c3c(c2c1)CN(C)CC3 | 0.87 |
| CCOc1cccc(N2C(=O)CC(N3CCC(C(N)=O)CC3)C2=O)c1 (stereo not given) | 0.32 |
| O=C(O)c1cc(S(=O)(=O)N2CCCCC2)ccc1Cl | -1.12 |
| COc1ccc(CNC2=CC(=O)CC(C)(C)C2)cc1 | -0.9 |
| CC(=O)c1cccc(Nc2nc(-c3ccccc3)cs2)c1 | -0.515 |
